Consider two substances from article PMC9128087.

By UniProt entry, the sequences of proteins in these tests, tags left out. Where a name states a change or a piece, a line headed by the entry shows the natural chain unless it says otherwise.
UniProt A0A221LEJ6: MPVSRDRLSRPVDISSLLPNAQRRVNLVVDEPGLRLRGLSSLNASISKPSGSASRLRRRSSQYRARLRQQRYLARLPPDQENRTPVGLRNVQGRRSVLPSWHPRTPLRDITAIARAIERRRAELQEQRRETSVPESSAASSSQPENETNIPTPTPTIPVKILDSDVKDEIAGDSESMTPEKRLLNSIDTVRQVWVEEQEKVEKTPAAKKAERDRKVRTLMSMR

Results are given in words; binding and its absence hold for the method and conditions named. Binding calls can cover weak binding; strength is not graded here. For some assays here: Binding seen in cells or lysates may run through a third protein.

The target of assay [1] is DcRAD51D, pGBKT7-DcRAD51D (carnation (Dianthus caryophyllus)). As to the kind of experiment: two-hybrid; pGBKT7 bait and pGADT7 prey cotransformed into Y2HGold yeast; growth on SD-Trp-Leu-His-Ade/X-α-Gal/AbA (QDO/X/A) at 30 °C for 3–5 days; blue colonies.
Assay [2] concerns the target Dianthus caryophyllus parallel spindle 1 (DcPS1), DcPS1-YFP^N (carnation (Dianthus caryophyllus)). The assay can be described thus: split reporter; BiFC: YFP^N and YFP^C fusions co-expressed by Agrobacterium GV3101 injection into young N. benthamiana leaves; 2 days in weak light; confocal microscopy.

Turning to “omission of second division like a (OSDLa), pGADT7-OSDLa (from UniProt A0A221LEJ6)”, the binding result in assay [1] is reported as “binds”.

As to OSDLa-YFP^C (from UniProt A0A221LEJ6), in assay [2], the binding result is listed as “binds”.
